Assay results as given in patent US20230365537A1, “POLO LIKE KINASE 4 INHIBITORS” (ORIC Pharmaceuticals, Inc., priority 2021, published 2023).
For at least one compound, name, drawing or mass did not settle the structure.

Protein sequences, listed by entry. Tags and fused reporters are not part of them. Lines headed by an entry give the natural chain unless they say otherwise; changes in a name come on top.
UniProt O14965: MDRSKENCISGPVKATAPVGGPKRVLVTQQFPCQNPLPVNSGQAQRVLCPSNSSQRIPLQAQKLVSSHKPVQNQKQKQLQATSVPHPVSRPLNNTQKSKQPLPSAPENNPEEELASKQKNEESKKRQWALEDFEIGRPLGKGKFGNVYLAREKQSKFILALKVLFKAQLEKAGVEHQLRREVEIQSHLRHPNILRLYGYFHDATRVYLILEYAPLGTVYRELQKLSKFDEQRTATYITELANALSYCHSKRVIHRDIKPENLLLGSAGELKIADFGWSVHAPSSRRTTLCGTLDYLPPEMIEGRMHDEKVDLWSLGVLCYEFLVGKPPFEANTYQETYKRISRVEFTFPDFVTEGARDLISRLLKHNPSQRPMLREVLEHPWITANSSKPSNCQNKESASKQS
UniProt Q96GD4, whole entry: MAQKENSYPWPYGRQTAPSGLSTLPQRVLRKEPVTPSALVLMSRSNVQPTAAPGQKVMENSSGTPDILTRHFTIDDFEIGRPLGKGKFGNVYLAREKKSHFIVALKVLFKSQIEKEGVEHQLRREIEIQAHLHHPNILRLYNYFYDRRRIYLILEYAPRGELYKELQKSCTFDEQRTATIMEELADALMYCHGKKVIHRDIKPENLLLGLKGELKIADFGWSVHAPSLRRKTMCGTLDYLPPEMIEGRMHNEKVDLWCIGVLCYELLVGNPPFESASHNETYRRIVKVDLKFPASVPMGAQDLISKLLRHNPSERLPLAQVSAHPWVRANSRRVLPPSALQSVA

Columns and labels:
[1] = target: human recombinant Aurora A (Homo sapiens (Human), UniProt O14965); assay: Aurora A Kinase Biochemical Assay (ADP-Glo); details: ratio of Aurora A IC50 to PLK4 IC50 (selectivity)
Method: (§1) Activity of human recombinant Aurora A (ThermoFisher, cat #PR5935A) was measured by quantification of adenosine diphosphate (ADP) using the ADP-Glo Kinase Assay Kit (Promega, cat #V9102). […] 5 µL of 5.0 nM Aurora A in assay buffer (50 mM HEPES, pH 7.5, 0.01% Brij-35, 0.01% BSA, 10 mM MgCl2, 1 mM EGTA, 1 mM DTT) was added to the plates. Test compounds and Aurora A were incubated for 15 minutes at room temperature (RT). […] Reactions were stopped and the remaining ATP depleted by adding 10uL of ADP-Glo reagent (Promega, cat#V912B) and incubating for 40 minutes at RT. The simultaneous conversion of the remaining ADP to ATP and measurement of the newly synthesized ATP was achieved by addition of 20 µL Kinase Detection reagent (Promega, cat #V914B), incubation for 30 min at RT, and luminescence detection using the EnVision plate reader (PerkinElmer). […] The IC50 values reported in Table 2 were determined using four parameter non-linear regression curve fit.

[2] = target: human recombinant Aurora B (Homo sapiens (Human), UniProt Q96GD4); assay: Aurora B Kinase Biochemical Assay (ADP-Glo); details: ratio of Aurora B IC50 to PLK4 IC50 (selectivity)
Method: as §1, with “Aurora B” for “Aurora A”, “cat #PR9210B)” for “cat #PR5935A)”, “of 20” for “of 5.0”

| SMILES | [Aurora A IC50 (nM)]/[PLK4 IC50 (nM)] [1] | [Aurora B IC50 (nM)]/[PLK4 IC50 (nM)] [2] |
| --- | --- | --- |
| COc1ccc2c(c1)[C@]1(C[C@H]1c1ccc3c(Nc4ncc(P(C)(C)=O)cc4OC)n[nH]c3c1)C(=O)N2 [Example 225, (1R,2S)-2-(3-{[5-(dimethylphosphoryl)-3-methoxypyridin-2-yl]amino}-1H-indazol-6-yl)-5′-methoxyspiro[cyclopropane-1,3′-indol]-2′(1′H)-one] | 1884.6028 | 381.4972 |
| COc1ccc2c(c1)[C@]1(C[C@H]1c1ccc3c(Nc4cc(S(=O)(=O)C5CCOCC5)ccc4OC)n[nH]c3c1)C(=O)N2 [Example 224, (1R,2S)-5′-methoxy-2-{3-[2-methoxy-5-(oxane-4-sulfonyl)anilino]-1H-indazol-6-yl}spiro[cyclopropane-1,3′-indol]-2′(1′H)-one] | 12450.1992 | 12450.1992 |
| COc1ccc2c(c1)[C@]1(C[C@H]1c1ccc3c(Nc4cc(N5CCN(C)C5=O)cnc4OC)n[nH]c3c1)C(=O)N2 [Example 221, (1R,2S)-5′-methoxy-2-(3-{[2-methoxy-5-(3-methyl-2-oxoimidazolidin-1-yl)pyridin-3-yl]amino}-1H-indazol-6-yl)spiro[cyclopropane-1,3′-indol]-2′(1′H)-one] | 511.1 | 1463.5974 |
